In the supplement of paper PMC8728848:
The other results are listed elsewhere or left out.

Experiments:
Experiment in all cases: glycan array binding signal (z-score within array); higher = stronger binding
Details in all cases: glycan notation: IUPAC condensed, linker removed
[1] = biological target: GlcNAc(b1-4)GlcNAc(b1-4)GlcNAc(b1-4)GlcNAc(b1-4)GlcNAc(b1-4)GlcNAc
Outline: (§1)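 Columns mapping to the same glycan were averaged after glycan names were converted to IUPAC-condensed notation. The data come from 3228 arrays in the Consortium for Functional Glycomics database, limited to those with an available protein sequence. Binding is reported as a within-array Z-score averaged across arrays of one protein sequence and across linkers.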

[2] = biological target: GlcNAc(b1-4)[GlcNAc(b1-6)]GalNAc
Outline: as §1

[3] = biological target: GlcNAc(b1-6)Gal(b1-4)GlcNAc
Outline: as §1

GlcNAc(b1-6)GalNAc = biological target: GlcNAc(b1-6)GalNAc
Outline: as §1

[4] = biological target: GlcNAc6S(b1-3)Gal(b1-4)GlcNAc
Outline: as §1

Kdn(a2-3)Gal(b1-3)GalNAc = biological target: Kdn(a2-3)Gal(b1-3)GalNAc
Outline: as §1

Kdn(a2-3)Gal(b1-3)GlcNAc = biological target: Kdn(a2-3)Gal(b1-3)GlcNAc
Outline: as §1

Kdn(a2-3)Gal(b1-4)Glc = biological target: Kdn(a2-3)Gal(b1-4)Glc
Outline: as §1

Kdn(a2-3)Gal(b1-4)GlcNAc = biological target: Kdn(a2-3)Gal(b1-4)GlcNAc
Outline: as §1

[5] = biological target: Kdn(a2-3)Gal(b1-4)[Fuc(a1-3)]GlcNAc
Outline: as §1

Kdn(a2-6)Gal(b1-4)GlcNAc = biological target: Kdn(a2-6)Gal(b1-4)GlcNAc
Outline: as §1

[6] = biological target: Man(a1-2)Man(a1-2)Man(a1-3)Man
Outline: as §1

[7] = biological target: Man(a1-2)Man(a1-2)Man(a1-6)[Man(a1-3)]Man
Outline: as §1

Man(a1-2)Man(a1-3)Man = biological target: Man(a1-2)Man(a1-3)Man
Outline: as §1

[8] = biological target: Man(a1-2)Man(a1-3)[Man(a1-2)Man(a1-6)]Man
Outline: as §1

[9] = biological target: Man(a1-2)Man(a1-3)[Man(a1-2)Man(a1-6)]Man(a1-6)[Man(a1-2)Man(a1-2)Man(a1-3)]Man
Outline: as §1

[10] = biological target: Man(a1-2)Man(a1-3)[Man(a1-2)Man(a1-6)]Man(a1-6)[Man(a1-2)Man(a1-2)Man(a1-3)]Man(b1-4)GlcNAc(b1-4)GlcNAc
Outline: as §1

[11] = biological target: Man(a1-2)Man(a1-3)[Man(a1-6)]Man(a1-6)[Man(a1-2)Man(a1-3)]Man(b1-4)GlcNAc(b1-4)GlcNAc
Outline: as §1

[12] = biological target: Man(a1-2)Man(a1-6)[Man(a1-3)]Man(a1-6)[Man(a1-2)Man(a1-2)Man(a1-3)]Man
Outline: as §1

[13] = biological target: Man(a1-2)Man(a1-6)[Man(a1-3)]Man(a1-6)[Man(a1-2)Man(a1-2)Man(a1-3)]Man(b1-4)GlcNAc(b1-4)GlcNAc
Outline: as §1

Man(a1-3)[Man(a1-6)]Man = biological target: Man(a1-3)[Man(a1-6)]Man
Outline: as §1

[14] = biological target: Man(a1-3)[Man(a1-6)]Man(a1-6)[Man(a1-2)Man(a1-3)]Man(b1-4)GlcNAc(b1-4)GlcNAc
Outline: as §1

[15] = biological target: Man(a1-3)[Man(a1-6)]Man(a1-6)[Man(a1-3)]Man
Outline: as §1

[16] = biological target: Man(a1-3)[Man(a1-6)]Man(a1-6)[Man(a1-3)]Man(b1-4)GlcNAc(b1-4)GlcNAc
Outline: as §1

[17] = biological target: Man(a1-3)[Man(a1-6)]Man(b1-4)GlcNAc(b1-4)GlcNAc
Outline: as §1

[18] = biological target: Man(a1-3)[Man(a1-6)]Man(b1-4)GlcNAc(b1-4)[Fuc(a1-6)]GlcNAc
Outline: as §1

Man(a1-6)Man = biological target: Man(a1-6)Man
Outline: as §1

Man(b1-4)GlcNAc = biological target: Man(b1-4)GlcNAc
Outline: as §1

MurNAc(b1-4)GlcNAc = biological target: MurNAc(b1-4)GlcNAc
Outline: as §1

Neu5Ac(a2-3)Gal = biological target: Neu5Ac(a2-3)Gal
Outline: as §1

[19] = biological target: Neu5Ac(a2-3)Gal(b1-3)GalNAc
Outline: as §1

[20] = biological target: Neu5Ac(a2-3)Gal(b1-3)GalNAc(b1-3)Gal(a1-4)Gal(b1-4)Glc
Outline: as §1

[21] = biological target: Neu5Ac(a2-3)Gal(b1-3)GalNAc(b1-4)[Neu5Ac(a2-3)]Gal(b1-4)Glc
Outline: as §1

[22] = biological target: Neu5Ac(a2-3)Gal(b1-3)GalNAc(b1-4)[Neu5Ac(a2-8)Neu5Ac(a2-3)]Gal(b1-4)Glc
Outline: as §1

[23] = biological target: Neu5Ac(a2-3)Gal(b1-3)GalNAc6S
Outline: as §1

[24] = biological target: Neu5Ac(a2-3)Gal(b1-3)GlcNAc
Outline: as §1

[25] = biological target: Neu5Ac(a2-3)Gal(b1-3)GlcNAc(b1-2)Man
Outline: as §1

B1: PX9961KLbvu-535-38-535 (Bacteroides vulgatus) (protein)
chain: DKAYTDAESYTKGLHKIYSVWALSGQDGSSSSDISGLDAGNTALLRCWWTLQEQPTDEMKNAWNDAWCTEVNYMTWTTNKVEPIEGVYQRCMYIVALVNEFLKNIPNAPESIDKESYIAQARFNRAFAYYVLMDMFALPPFITEKNYSIEPAPLSREDLFNWIEAELNEIKPNLPSPRSEYGVADQAVASALLARMYLNAEIYTGKARYTECINACNEVIKAGYQLADNYADLFKADNGENPDTKKEIIYPIIFDGDKTQSWGMAAIIIGARGAEDKDVLLAHSGVDQGWAGFRATSNLVHLFDFQNDEEPKASEIQDKRGIFYDKGRSIDITSSVSGTFETEGWSVFKFSNLNSNGQPGKNTLWVDTDFPMFRLGDIYLMYAEAVARGGEGSKASAVEYINALRKRAYGDDKHNISENWLEENNFRNLLDERGRELYWEGIRRTDLVRFDLLTSGSYTWDFKGGINTGVGVNKRYNVYPIPVTDLTVNGNLQQNEGY
glycan array binding signal (z-score) [1]: -0.624 | glycan array binding signal (z-score) [2]: -0.54 | glycan array binding signal (z-score) [3]: 0.017 | glycan array binding signal (z-score) (GlcNAc(b1-6)GalNAc): -0.148 | glycan array binding signal (z-score) [4]: -0.704 | glycan array binding signal (z-score) (Kdn(a2-3)Gal(b1-3)GalNAc): 0.667 | glycan array binding signal (z-score) (Kdn(a2-3)Gal(b1-3)GlcNAc): -0.028 | glycan array binding signal (z-score) (Kdn(a2-3)Gal(b1-4)Glc): 0.295 | glycan array binding signal (z-score) (Kdn(a2-3)Gal(b1-4)GlcNAc): -1.14 | glycan array binding signal (z-score) [5]: -0.266 | glycan array binding signal (z-score) (Kdn(a2-6)Gal(b1-4)GlcNAc): -0.71 | glycan array binding signal (z-score) [6]: 0.041 | glycan array binding signal (z-score) [7]: -0.833 | glycan array binding signal (z-score) (Man(a1-2)Man(a1-3)Man): -0.203 | glycan array binding signal (z-score) [8]: -0.059 | glycan array binding signal (z-score) [9]: -0.364 | glycan array binding signal (z-score) [10]: 0.029 | glycan array binding signal (z-score) [11]: -0.892 | glycan array binding signal (z-score) [12]: 0.499 | glycan array binding signal (z-score) [13]: -0.583 | glycan array binding signal (z-score) (Man(a1-3)[Man(a1-6)]Man): -0.077 | glycan array binding signal (z-score) [14]: 0.357 | glycan array binding signal (z-score) [15]: 0.956 | glycan array binding signal (z-score) [16]: 0.158 | glycan array binding signal (z-score) [17]: -0.054 | glycan array binding signal (z-score) [18]: -0.389 | glycan array binding signal (z-score) (Man(a1-6)Man): -0.102 | glycan array binding signal (z-score) (Man(b1-4)GlcNAc): 0.646 | glycan array binding signal (z-score) (MurNAc(b1-4)GlcNAc): 0.495 | glycan array binding signal (z-score) (Neu5Ac(a2-3)Gal): -0.055 | glycan array binding signal (z-score) [19]: -0.336 | glycan array binding signal (z-score) [20]: 0.885 | glycan array binding signal (z-score) [21]: -0.037 | glycan array binding signal (z-score) [22]: 0.204 | glycan array binding signal (z-score) [23]: 0.146 | glycan array binding signal (z-score) [24]: -0.099 | glycan array binding signal (z-score) [25]: -0.376
